Results deposited as PubChem BioAssay AID1259405 (NCATS, 2018)
This is an unselected part of about 50,000 reagents. Over the whole deposit, about 4,000 (8%) got an active call. 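Mouse siRNA library applied to hamster cells; one well for each siRNA.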 Reagents against one gene are numbered here.

- Aim: 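Knock-downs that lift recombinant protein yield in hamster ovary cells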 (primary screen)
- Cell system: Chinese hamster CHO-K1 ovary cells with stable secreted eGFP expression
- Reagents: single siRNA against mouse genes, 0.8 pmol siRNA per well (2 µl of 400 nM stock)
- Duration: 3 days
- Measurement: 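Per-well intracellular GFP measured by laser scanning cytometry, plus viability from ATP luminescence, each relative to plate median of non-targeting control wells, in %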
- Direction: GFP, % of control: higher = more GFP per well, higher productivity; viability (ATP), % of control: higher = more viable cells (more ATP)
- Hit rule: 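Called active when intracellular GFP, relative to negative control, is at or above 120%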

| Target gene | reagent | GFP, % of control | viability (ATP), % of control | Outcome |
| --- | --- | --- | --- | --- |
| Prl2b1 (GeneID 66392) | 1 | 56.2 | 67.5 | inactive |
| Prl2b1 (GeneID 66392) | 2 | 82 | 78.8 | inactive |
| Prl2b1 (GeneID 66392) | 3 | 56.7 | 53.9 | inactive |
| Nudt22 (GeneID 68323) | 1 | 79.9 | 76.7 | inactive |
| Nudt22 (GeneID 68323) | 2 | 79.1 | 85.5 | inactive |
| Nudt22 (GeneID 68323) | 3 | 96.1 | 115 | inactive |
| Fah (GeneID 14085) | 1 | 27.6 | 48.4 | inactive |
| Fah (GeneID 14085) | 2 | 73.6 | 72.8 | inactive |
| Fah (GeneID 14085) | 3 | 60.1 | 85.5 | inactive |
| Pde6b (GeneID 18587) | 1 | 82.8 | 90 | inactive |
| Pde6b (GeneID 18587) | 2 | 41.2 | 46.3 | inactive |
| Pde6b (GeneID 18587) | 3 | 45 | 85.5 | inactive |
| Hnrnph1 (GeneID 59013) | 1 | 79.8 | 74.6 | inactive |
| Hnrnph1 (GeneID 59013) | 2 | 88.7 | 88.3 | inactive |
| Hnrnph1 (GeneID 59013) | 3 | 81.1 | 98.6 | inactive |
| Zfp941 (GeneID 407812) | 1 | 46.8 | 63.4 | inactive |
| Zfp941 (GeneID 407812) | 2 | 49.5 | 58.1 | inactive |
| Zfp941 (GeneID 407812) | 3 | 113 | 114 | inactive |
| Or9k7 (GeneID 258297) | 1 | 68 | 37.9 | inactive |
| Or9k7 (GeneID 258297) | 2 | 113 | 107 | inactive |
| Or9k7 (GeneID 258297) | 3 | 21.8 | 33.1 | inactive |
| Ccn1 (GeneID 16007) | 1 | 63.3 | 102 | inactive |
| Ccn1 (GeneID 16007) | 2 | 59.5 | 92.8 | inactive |
| Ccn1 (GeneID 16007) | 3 | 69.5 | 87.8 | inactive |
| Siglece (GeneID 83382) | 1 | 73.5 | 59.9 | inactive |
| Siglece (GeneID 83382) | 2 | 106 | 94 | inactive |
| Slc39a7 (GeneID 14977) | 1 | 74.5 | 56 | inactive |
| Slc39a7 (GeneID 14977) | 2 | 86.6 | 48.1 | inactive |
| Slc39a7 (GeneID 14977) | 3 | 98 | 91.5 | inactive |
| Fbxl14 (GeneID 101358) | 1 | 102 | 87.6 | inactive |
| Fbxl14 (GeneID 101358) | 2 | 112 | 81.1 | inactive |
| Fbxl14 (GeneID 101358) | 3 | 80.7 | 79 | inactive |
| Mpc2 (GeneID 70456) | 1 | 83.3 | 68.6 | inactive |
| Mpc2 (GeneID 70456) | 2 | 73.1 | 47 | inactive |
| Mpc2 (GeneID 70456) | 3 | 74.3 | 82.8 | inactive |
| Kcnk4 (GeneID 16528) | 1 | 49.4 | 27 | inactive |
| Kcnk4 (GeneID 16528) | 2 | 52.7 | 71.2 | inactive |
| Kcnk4 (GeneID 16528) | 3 | 59.4 | 71.9 | inactive |
| Gtf2e2 (GeneID 68153) | 1 | 70.6 | 82.9 | inactive |
| Gtf2e2 (GeneID 68153) | 2 | 106 | 85.5 | inactive |
| Gtf2e2 (GeneID 68153) | 3 | 101 | 65.2 | inactive |
| Dek (GeneID 110052) | 1 | 59.8 | 78.6 | inactive |
| Dek (GeneID 110052) | 2 | 140 | 96.4 | active |
| Dek (GeneID 110052) | 3 | 71.9 | 76.7 | inactive |
| Atp6v0d2 (GeneID 242341) | 1 | 85.2 | 71.6 | inactive |
| Atp6v0d2 (GeneID 242341) | 2 | 71.7 | 86.4 | inactive |
| Atp6v0d2 (GeneID 242341) | 3 | 49.7 | 52 | inactive |
| Axl (GeneID 26362) | 1 | 95.9 | 58.9 | inactive |
| Axl (GeneID 26362) | 2 | 80.2 | 57.5 | inactive |
| Axl (GeneID 26362) | 3 | 138 | 63.3 | active |
| Dnajc1 (GeneID 13418) | 1 | 84.7 | 80.4 | inactive |
| Dnajc1 (GeneID 13418) | 2 | 71.4 | 86 | inactive |
| Dnajc1 (GeneID 13418) | 3 | 76.4 | 79.1 | inactive |
| Bbc3 (GeneID 170770) | 1 | 102 | 45.2 | inactive |
| Bbc3 (GeneID 170770) | 2 | 86.9 | 78.7 | inactive |
| Bbc3 (GeneID 170770) | 3 | 110 | 124 | inactive |
| Gpr6 (GeneID 140741) | 1 | 112 | 116 | inactive |
| Gpr6 (GeneID 140741) | 2 | 77.5 | 72.2 | inactive |
| Gpr6 (GeneID 140741) | 3 | 70.8 | 68.3 | inactive |
| Mtmr10 (GeneID 233315) | 1 | 63.4 | 58.8 | inactive |
| Mtmr10 (GeneID 233315) | 2 | 123 | 46.2 | active |
| Mtmr10 (GeneID 233315) | 3 | 78.6 | 105 | inactive |
| Ctxn1 (GeneID 330695) | 1 | 93.7 | 91.4 | inactive |
| Ctxn1 (GeneID 330695) | 2 | 103 | 81.7 | inactive |
| Ctxn1 (GeneID 330695) | 3 | 150 | 114 | active |
| Xrcc6 (GeneID 14375) | 1 | 78.9 | 79.8 | inactive |
| Xrcc6 (GeneID 14375) | 2 | 81.1 | 67.1 | inactive |
| Xrcc6 (GeneID 14375) | 3 | 85 | 85.3 | inactive |
| Serf1 (GeneID 20365) | 1 | 66 | 45.9 | inactive |
| Serf1 (GeneID 20365) | 2 | 103 | 69 | inactive |
| Serf1 (GeneID 20365) | 3 | 73.3 | 78.3 | inactive |
| Tra2b (GeneID 20462) | 1 | 79.5 | 88.7 | inactive |
| Tra2b (GeneID 20462) | 2 | 70.5 | 87.8 | inactive |
| Mgat4d (GeneID 67555) | 1 | 120 | 75.4 | active |
| Mgat4d (GeneID 67555) | 2 | 71 | 67.2 | inactive |
| Mgat4d (GeneID 67555) | 3 | 35.9 | 26.7 | inactive |
| Ptov1 (GeneID 84113) | 1 | 52.2 | 75.9 | inactive |
| Ptov1 (GeneID 84113) | 2 | 71.3 | 90.4 | inactive |
| Ptov1 (GeneID 84113) | 3 | 90.9 | 98.6 | inactive |
| Snrpn (GeneID 20646) | 1 | 73.8 | 91.3 | inactive |
| Snrpn (GeneID 20646) | 2 | 54.5 | 56.5 | inactive |
| Pramel26 (GeneID 381569) | 1 | 94.6 | 55.1 | inactive |
| Pramel26 (GeneID 381569) | 2 | 64.3 | 48 | inactive |
| Pramel26 (GeneID 381569) | 3 | 88.9 | 71.4 | inactive |
| Tshr (GeneID 22095) | 1 | 90.1 | 73.7 | inactive |
| Tshr (GeneID 22095) | 2 | 93 | 98.4 | inactive |
| Tshr (GeneID 22095) | 3 | 39.2 | 53.7 | inactive |
| Kcnf1 (GeneID 382571) | 1 | 62.5 | 52.8 | inactive |
| Kcnf1 (GeneID 382571) | 2 | 59.7 | 79.5 | inactive |
| Kcnf1 (GeneID 382571) | 3 | 49.5 | 72.1 | inactive |
| Hhat (GeneID 226861) | 1 | 62.9 | 66 | inactive |
| Hhat (GeneID 226861) | 2 | 82.5 | 44.7 | inactive |
| Hhat (GeneID 226861) | 3 | 73.3 | 65.4 | inactive |
| Lrrc59 (GeneID 98238) | 1 | 68.7 | 74.9 | inactive |
| Lrrc59 (GeneID 98238) | 2 | 59.2 | 63.5 | inactive |
| Lrrc59 (GeneID 98238) | 3 | 76.5 | 83.4 | inactive |
| Itgal (GeneID 16408) | 1 | 115 | 96.7 | inactive |
| Itgal (GeneID 16408) | 2 | 83.3 | 87.9 | inactive |
| Tle6 (GeneID 114606) | 1 | 108 | 61.4 | inactive |
| Tle6 (GeneID 114606) | 2 | 88.6 | 119 | inactive |
| Tle6 (GeneID 114606) | 3 | 115 | 69.8 | inactive |
| Pelo (GeneID 105083) | 1 | 75.9 | 52.4 | inactive |
| Pelo (GeneID 105083) | 2 | 94.6 | 72.4 | inactive |
| Pelo (GeneID 105083) | 3 | 118 | 86.3 | inactive |
| Hexb (GeneID 15212) | 1 | 96.4 | 91.3 | inactive |
| Hexb (GeneID 15212) | 2 | 39.7 | 65.6 | inactive |
| Hexb (GeneID 15212) | 3 | 94 | 90.2 | inactive |

An excerpt from above, showing only “viability (ATP), % of control”:
Siglece (GeneID 83382) #2	94
Slc39a7 (GeneID 14977) #1	56
Slc39a7 (GeneID 14977) #2	48.1
Slc39a7 (GeneID 14977) #3	91.5
Fbxl14 (GeneID 101358) #1	87.6
Fbxl14 (GeneID 101358) #2	81.1
Fbxl14 (GeneID 101358) #3	79
Mpc2 (GeneID 70456) #1	68.6
Mpc2 (GeneID 70456) #2	47
Mpc2 (GeneID 70456) #3	82.8
Kcnk4 (GeneID 16528) #1	27
